# PubChem BioAssay AID743121 – NCATS – 2013
# Aim: 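Partners whose loss is lethal together with topoisomerase I blockade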 (primary screen)
# System: MDA-MB-231 cells, a human breast cancer line
# Reagents: single siRNA against human genes, 20 nM siRNA (0.8 pmol per well)
# Timing: 120 h (drug added 48 h after transfection, read 72 h later)
# Challenge: camptothecin 20 nM (about EC30) for 72 h; vehicle 0.1% DMSO in parallel plates
# Measurement: 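Cell viability by ATP luminescence (CellTiter-Glo) as % of non-targeting siRNA wells, and the log2 ratio of viability without drug over viability with camptothecin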
# Reading the numbers: log2 vehicle/camptothecin viability: higher = stronger sensitisation to camptothecin
# Rule for the call: 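Active genes have an RSA gene-level p-value below 0.001, computed from the ratios of their separate siRNAs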
# The whole screen tested about 26,000 reagents; below is a part drawn at random. Over the whole deposit, 167 (0.63%) got an active call. 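Calls are per gene from RSA p-values that are not deposited; an individual active-marked siRNA can sensitise only weakly.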 Reagents against one gene are numbered here. Not all columns of the deposit are shown. No sequences are given here.
Gene,reagent no.,log2 vehicle/camptothecin viability,call
SPATA20,1,-0.215,inactive
SPATA20,2,-0.164,inactive
SPATA20,3,-0.495,inactive
SPATA20,4,-0.532,inactive
ALDH3B2,1,-0.181,inactive
ALDH3B2,2,-0.582,inactive
ALDH3B2,3,-0.0432,inactive
ALDH3B2,4,-0.0675,inactive
S1PR3,1,-0.215,inactive
S1PR3,2,-0.298,inactive
S1PR3,3,0.528,inactive
S1PR3,4,-0.406,inactive
SLC12A8,1,-0.315,inactive
SLC12A8,2,-0.528,inactive
SLC12A8,3,0.076,inactive
SLC12A8,4,-0.342,inactive
SEC11A,1,-0.178,inactive
SEC11A,2,-0.239,inactive
SEC11A,3,0.00807,inactive
SEC11A,4,-0.407,inactive
CTTN,1,0.0114,inactive
CTTN,2,-0.416,inactive
CTTN,3,0.00474,inactive
CTTN,4,0.0657,inactive
MS4A1,1,-0.0251,inactive
MS4A1,2,0.0936,inactive
MS4A1,3,0.175,inactive
AIP,1,-0.258,inactive
AIP,2,-0.445,inactive
AIP,3,-0.194,inactive
GPR82,1,-0.232,inactive
GPR82,2,-0.477,inactive
GPR82,3,-0.533,inactive
GPR82,4,-0.402,inactive
ERAS,1,0.162,inactive
ERAS,2,0.312,inactive
ERAS,3,-0.406,inactive
ERAS,4,0.693,inactive
CDK4,1,-0.0254,inactive
CDK4,2,-0.666,inactive
CDK4,3,-0.273,inactive
CDK4,4,-0.196,inactive
KPNA2,1,0.384,inactive
KPNA2,2,-0.174,inactive
KPNA2,3,-0.491,inactive
DNMT3A,1,-0.121,inactive
DNMT3A,2,0.0956,inactive
DNMT3A,3,0.253,inactive
DNMT3A,4,0.111,inactive
DNMT3A,5,-0.0304,inactive
DNMT3A,6,-0.0903,inactive
DNMT3A,7,-0.0676,inactive
DNMT3A,8,-0.448,inactive
TRIP11,1,0.269,inactive
TRIP11,2,0.149,inactive
TRIP11,3,-0.0486,inactive
VEGFC,1,0.607,inactive
VEGFC,2,-0.0117,inactive
VEGFC,3,0.489,inactive
RAC2,1,-0.44,inactive
RAC2,2,0.114,inactive
RAC2,3,1.34,inactive
RAC2,4,-0.347,inactive
NEURL2,1,0.205,inactive
NEURL2,2,0.0452,inactive
NEURL2,3,-0.473,inactive
NEURL2,4,-0.18,inactive
CXCR1,1,-0.0086,inactive
CXCR1,2,-0.365,inactive
CXCR1,3,-0.303,inactive
CXCR1,4,-0.276,inactive
TSPYL2,1,-0.187,inactive
TSPYL2,2,-0.167,inactive
TSPYL2,3,-0.56,inactive
TSPYL2,4,0.179,inactive
ASB10,1,-0.23,inactive
ASB10,2,0.0982,inactive
ASB10,3,-0.0996,inactive
ASB10,4,-0.294,inactive
IRAK4,1,0.217,inactive
IRAK4,2,0.111,inactive
IRAK4,3,0.19,inactive
IRAK4,4,0.0521,inactive
PRKACB,1,-0.101,inactive
PRKACB,2,0.105,inactive
PRKACB,3,-0.266,inactive
PRKACB,4,-0.217,inactive
